Laboratory results: article PMC6393503
No constants are given. Whether binding was seen depends on the method and setting. Binding seen in cells or lysates may run through a third protein. Some binding calls cover weakened binding; strength is not graded here.

The chains behind the UniProt entries cited, without tags or fusion partners.
UniProt P33527: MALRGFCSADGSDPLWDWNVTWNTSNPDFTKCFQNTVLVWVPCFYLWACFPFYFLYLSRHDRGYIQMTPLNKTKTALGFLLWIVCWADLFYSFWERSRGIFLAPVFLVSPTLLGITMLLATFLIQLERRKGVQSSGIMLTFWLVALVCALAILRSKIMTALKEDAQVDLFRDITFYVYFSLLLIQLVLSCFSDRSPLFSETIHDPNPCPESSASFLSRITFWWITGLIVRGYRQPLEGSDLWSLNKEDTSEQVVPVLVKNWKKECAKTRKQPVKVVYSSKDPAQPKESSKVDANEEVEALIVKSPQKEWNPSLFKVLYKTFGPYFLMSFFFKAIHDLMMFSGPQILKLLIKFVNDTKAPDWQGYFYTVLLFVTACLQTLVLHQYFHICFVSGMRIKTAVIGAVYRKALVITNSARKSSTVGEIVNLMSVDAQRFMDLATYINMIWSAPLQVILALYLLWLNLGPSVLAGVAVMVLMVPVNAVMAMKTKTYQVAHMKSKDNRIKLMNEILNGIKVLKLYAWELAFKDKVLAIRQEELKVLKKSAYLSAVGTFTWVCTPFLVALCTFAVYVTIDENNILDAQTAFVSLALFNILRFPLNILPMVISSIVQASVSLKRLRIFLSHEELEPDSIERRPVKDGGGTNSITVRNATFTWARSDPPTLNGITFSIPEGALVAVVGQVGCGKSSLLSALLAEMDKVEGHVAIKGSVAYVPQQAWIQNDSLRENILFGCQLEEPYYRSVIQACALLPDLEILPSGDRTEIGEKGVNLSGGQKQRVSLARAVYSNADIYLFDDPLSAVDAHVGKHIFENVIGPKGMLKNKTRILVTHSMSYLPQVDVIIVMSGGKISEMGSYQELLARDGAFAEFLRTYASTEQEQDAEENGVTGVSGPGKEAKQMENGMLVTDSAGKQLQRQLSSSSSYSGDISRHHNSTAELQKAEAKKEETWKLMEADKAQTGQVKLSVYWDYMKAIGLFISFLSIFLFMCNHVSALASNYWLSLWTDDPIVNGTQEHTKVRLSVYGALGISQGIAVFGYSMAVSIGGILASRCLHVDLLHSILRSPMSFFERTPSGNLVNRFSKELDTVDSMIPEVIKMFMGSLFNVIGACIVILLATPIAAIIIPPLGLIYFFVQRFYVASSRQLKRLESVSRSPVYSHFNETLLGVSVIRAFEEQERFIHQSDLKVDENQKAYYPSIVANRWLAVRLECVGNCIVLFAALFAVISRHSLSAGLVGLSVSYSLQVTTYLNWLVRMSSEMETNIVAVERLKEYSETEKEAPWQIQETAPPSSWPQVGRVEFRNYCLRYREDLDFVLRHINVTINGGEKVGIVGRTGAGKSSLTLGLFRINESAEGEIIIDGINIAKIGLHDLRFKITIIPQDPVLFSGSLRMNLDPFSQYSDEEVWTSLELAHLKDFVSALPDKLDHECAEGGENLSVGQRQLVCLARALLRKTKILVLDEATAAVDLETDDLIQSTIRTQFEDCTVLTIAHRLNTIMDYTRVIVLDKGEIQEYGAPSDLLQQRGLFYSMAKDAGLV
UniProt Q8NA03: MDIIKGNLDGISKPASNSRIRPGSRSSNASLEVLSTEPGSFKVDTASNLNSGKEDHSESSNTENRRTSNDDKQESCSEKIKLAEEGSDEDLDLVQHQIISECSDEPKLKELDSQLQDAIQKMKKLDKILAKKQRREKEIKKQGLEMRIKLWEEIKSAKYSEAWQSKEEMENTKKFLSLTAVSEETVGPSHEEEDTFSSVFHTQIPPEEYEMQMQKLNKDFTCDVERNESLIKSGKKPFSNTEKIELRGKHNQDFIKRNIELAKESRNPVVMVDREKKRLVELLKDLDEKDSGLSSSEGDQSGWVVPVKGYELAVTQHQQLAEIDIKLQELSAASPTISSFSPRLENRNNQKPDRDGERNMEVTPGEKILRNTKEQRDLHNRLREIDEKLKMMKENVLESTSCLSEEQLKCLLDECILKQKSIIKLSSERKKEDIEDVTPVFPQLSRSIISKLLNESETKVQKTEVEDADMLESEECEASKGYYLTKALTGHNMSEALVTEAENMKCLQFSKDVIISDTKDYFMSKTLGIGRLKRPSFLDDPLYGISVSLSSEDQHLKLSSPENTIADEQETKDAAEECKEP

Molecular target: multidrug resistance protein 1 (MRP1) (human (endogenous in MDA-MB-231 and SKBR3)) (UniProt P33527)
Assay: co-IP; endogenous proteins in MDA-MB-231 and SKBR3 cell lysates; immunoprecipitate immunoblotted with anti-FSIP1 or anti-MRP1 antibody; IgG as negative control

Q: With “Fibrous sheath-interacting protein 1 (FSIP1) (from UniProt Q8NA03 1-581)” as the substance, how does the binding read?
A: binds
